Test results as given in patent publication US6153589A, “2,3-epoxy alcohols, acids and derivatives as anti retroviral chemotherapeutic agents” (The United States of America as represented by the …, priority 1992, dated 2000).
At least one compound was matched to its structure with a doubt left.

tested on: HIV-2 protease; assay: HIV protease cleavage of nonapeptide (HPLC); assay type: biochemical; conditions: 0.5 μl of 10 μg/μl inhibitor in DMSO per 10 μl reaction; pH 6.5, room temperature; pentapeptide product relative to DMSO control; sampled at ca. 16 and 40 hr (time not given)
Description: Activity Against HIV Protease
The assay for proteolyic activity is a modified version of that previously described by Copeland et al., Gene Anal. Tech., 5:109-115 (1988). For each assay to be performed 2 microliters of protease solution (ca. 100 ng) is added to 3 μg of nonapeptide (Val-Ser-Gln-Asn-Tyr-Pro-Ile-Val-Gln-NH2) in 8 μl of 200 mM sodium phosphate, 1 M NaCl, 5% glycerol, 0.25% Nonidet-40, at pH 6.5. This affords a stock solution containing 10 μl per number of reactions. This stock is aliquoted out in 10 μl portions to which 0.5 μl of DMSO (a control is run with each set of assays to compensate for minor experimental variations) or a DMSO solution containing 10 μg/μl of an inhibitor, i.e., any one of the compounds of the present invention, is added. The reactions were incubated at room temperature and 4 μl portions were removed at ca. 16 and 40 hr. intervals. HPLC analysis was performed on a 4.6×250 mm Lichrosorb RP-18 column eluted with a gradient of 0-40% acetonitrile in water (containing 0.05% TFA) over 30 min monitoring absorbance at 206 nm. Progress of the enzymatic cleavage was followed by monitoring the appearance of the pentapeptide (Val-Ser-Gln-Asn-Tyr-OH) cleavage product. The activity is expressed as the amount of the pentapeptide (Val-Ser-Gln-Asn-Tyr-OH) observed relative to the control reaction for that set of assays.
Inhibition of HIV-2 protease

Point of comparison: `CCCCCCCCC[C@@H]1O[C@@H]1C(=O)O` [Example 22, (2-S-cis)-3-Nonyloxiranecarboxylic Acid], “Percent Control Cleavage of Nonapeptide HIV-1 Cleavage Site Fragment” value 60%. Against it:
- CCCCCCCCCCC[C@@H]1O[C@@H]1C(=O)O (relative stereo) [Example 19, (2S*-cis)-3-Undecyloxiranecarboxylic Acid] — higher, 77%
- CCCCCCCCC[C@H]1O[C@H]1C(=O)O [Example 21, (2R-cis)-3-Nonyloxiranecarboxylic Acid] — lower, 56%
- CCCCCCCCCCC[C@@H]1O[C@H]1C(=O)O [Example 39, (2R-trans)-3-Undecyloxiranecarboxylic Acid] — higher, 84%
